This is an account of results in paper PMC11978164.

Protein sequences, listed by entry. Tags and fused reporters are not part of them.
UniProt Q13263: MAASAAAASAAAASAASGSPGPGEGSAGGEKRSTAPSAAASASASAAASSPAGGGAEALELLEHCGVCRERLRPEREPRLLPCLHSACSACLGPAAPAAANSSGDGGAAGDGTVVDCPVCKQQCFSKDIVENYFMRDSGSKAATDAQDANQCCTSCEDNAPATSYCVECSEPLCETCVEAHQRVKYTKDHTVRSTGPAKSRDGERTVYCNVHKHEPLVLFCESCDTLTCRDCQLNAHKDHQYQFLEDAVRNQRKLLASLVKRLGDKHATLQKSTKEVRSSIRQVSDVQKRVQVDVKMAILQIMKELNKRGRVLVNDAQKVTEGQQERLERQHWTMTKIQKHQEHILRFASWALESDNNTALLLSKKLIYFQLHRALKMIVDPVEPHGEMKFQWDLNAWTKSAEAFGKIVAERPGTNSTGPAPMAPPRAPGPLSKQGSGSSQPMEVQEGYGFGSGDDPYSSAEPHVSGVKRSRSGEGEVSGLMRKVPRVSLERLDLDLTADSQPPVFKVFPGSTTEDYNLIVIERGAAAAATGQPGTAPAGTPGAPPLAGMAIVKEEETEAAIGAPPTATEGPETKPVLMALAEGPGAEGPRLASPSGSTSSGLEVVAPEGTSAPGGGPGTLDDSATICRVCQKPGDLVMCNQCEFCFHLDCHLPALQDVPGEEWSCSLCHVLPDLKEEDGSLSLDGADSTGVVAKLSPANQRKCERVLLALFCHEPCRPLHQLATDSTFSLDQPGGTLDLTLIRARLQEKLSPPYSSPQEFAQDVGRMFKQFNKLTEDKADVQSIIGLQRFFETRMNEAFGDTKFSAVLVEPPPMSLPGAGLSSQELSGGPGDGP
UniProt P63104: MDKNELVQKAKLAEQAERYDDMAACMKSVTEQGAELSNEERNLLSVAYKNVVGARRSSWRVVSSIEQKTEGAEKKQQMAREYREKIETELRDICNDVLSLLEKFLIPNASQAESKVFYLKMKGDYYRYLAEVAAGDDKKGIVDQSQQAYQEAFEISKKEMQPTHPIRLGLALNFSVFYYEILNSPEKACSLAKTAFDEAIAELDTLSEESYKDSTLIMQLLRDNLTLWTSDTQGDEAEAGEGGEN

Results are given in words; binding and its absence hold for the method and conditions named. In cells and extracts the contact can be indirect. These calls come from enrichment with a bait or labelling near it, and not all partners need be listed.

This test concerns the target TRIM28 (human (endogenous in ARP1, RPMI 8226, U266)) (UniProt Q13263). The test can be described thus: affinity purification with mass spectrometry; IP/MS with anti-TRIM28 antibody in ARP1 cells; precipitate stained with Coomassie brilliant blue.

Take 14-3-3ζ (from UniProt P63104 1-245): the binding entry is “binds”.
